{"source": "PubChem BioAssay AID1224830, NIAID | 2016", "purpose": "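Regulators of TLR4 signalling towards TNF-alpha in macrophage-like cells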 (primary screen)", "system": "human THP-1 monocytic leukaemia cells, TNF dual-luciferase reporter clone, PMA-differentiated to macrophage-like cells", "reagents": "siRNA pool against human genes, 50 nM", "time to read-out": "LPS for 4 h, given about 3 days after siRNA transfection", "challenge": "bacterial LPS (TLR4 ligand), 10 ng/ml", "measured": "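TNF firefly reporter luminescence divided by renilla, normalised to the plate median, then turned into a robust z-score for each replicate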", "direction": "TNF reporter robust z-score: higher = stronger TNF reporter response to LPS", "rule for the call": "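a well is active when its z-score exceeds 2.8 or falls below -1.5; control wells carry no call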", "note": "The deposit covers about 18,000 reagents; this is an unselected part. About 2,900 of them (16%) were called active. 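Calls are made per well; low scores hint the gene aids the LPS response, high scores that it dampens it.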 Repeated entries: four replicate wells of each siRNA pool."}
{"gene knocked down":"SSR3 (signal sequence receptor subunit 3)","TNF reporter robust z-score":-0.38,"call":"inactive"}
{"gene knocked down":"SSR3 (signal sequence receptor subunit 3)","TNF reporter robust z-score":0.96,"call":"inactive"}
{"gene knocked down":"SSR3 (signal sequence receptor subunit 3)","TNF reporter robust z-score":0.84,"call":"inactive"}
{"gene knocked down":"SSR3 (signal sequence receptor subunit 3)","TNF reporter robust z-score":0.8,"call":"inactive"}
{"gene knocked down":"LGR4 (leucine rich repeat containing G protein-coupled receptor 4)","TNF reporter robust z-score":0.05,"call":"inactive"}
{"gene knocked down":"LGR4 (leucine rich repeat containing G protein-coupled receptor 4)","TNF reporter robust z-score":0.52,"call":"inactive"}
{"gene knocked down":"LGR4 (leucine rich repeat containing G protein-coupled receptor 4)","TNF reporter robust z-score":0.5,"call":"inactive"}
{"gene knocked down":"LGR4 (leucine rich repeat containing G protein-coupled receptor 4)","TNF reporter robust z-score":1.33,"call":"inactive"}
{"gene knocked down":"CCDC62 (coiled-coil domain containing 62)","TNF reporter robust z-score":0.53,"call":"inactive"}
{"gene knocked down":"CCDC62 (coiled-coil domain containing 62)","TNF reporter robust z-score":1.44,"call":"inactive"}
{"gene knocked down":"CCDC62 (coiled-coil domain containing 62)","TNF reporter robust z-score":2.27,"call":"inactive"}
{"gene knocked down":"CCDC62 (coiled-coil domain containing 62)","TNF reporter robust z-score":0.7,"call":"inactive"}
{"gene knocked down":"RGS17 (regulator of G protein signaling 17)","TNF reporter robust z-score":0.23,"call":"inactive"}
{"gene knocked down":"RGS17 (regulator of G protein signaling 17)","TNF reporter robust z-score":0.79,"call":"inactive"}
{"gene knocked down":"RGS17 (regulator of G protein signaling 17)","TNF reporter robust z-score":0.88,"call":"inactive"}
{"gene knocked down":"RGS17 (regulator of G protein signaling 17)","TNF reporter robust z-score":0.91,"call":"inactive"}
{"gene knocked down":"BRI3BP (BRI3 binding protein)","TNF reporter robust z-score":3.86,"call":"active"}
{"gene knocked down":"BRI3BP (BRI3 binding protein)","TNF reporter robust z-score":4.83,"call":"active"}
{"gene knocked down":"BRI3BP (BRI3 binding protein)","TNF reporter robust z-score":3.76,"call":"active"}
{"gene knocked down":"BRI3BP (BRI3 binding protein)","TNF reporter robust z-score":3.65,"call":"active"}
{"gene knocked down":"KRTAP5-11 (keratin associated protein 5-11)","TNF reporter robust z-score":0.68,"call":"inactive"}
{"gene knocked down":"KRTAP5-11 (keratin associated protein 5-11)","TNF reporter robust z-score":0.27,"call":"inactive"}
{"gene knocked down":"KRTAP5-11 (keratin associated protein 5-11)","TNF reporter robust z-score":0.54,"call":"inactive"}
{"gene knocked down":"KRTAP5-11 (keratin associated protein 5-11)","TNF reporter robust z-score":1.07,"call":"inactive"}
{"gene knocked down":"GBP4 (guanylate binding protein 4)","TNF reporter robust z-score":-0.55,"call":"inactive"}
{"gene knocked down":"GBP4 (guanylate binding protein 4)","TNF reporter robust z-score":-0.15,"call":"inactive"}
{"gene knocked down":"GBP4 (guanylate binding protein 4)","TNF reporter robust z-score":-0.33,"call":"inactive"}
{"gene knocked down":"GBP4 (guanylate binding protein 4)","TNF reporter robust z-score":-0.64,"call":"inactive"}
{"gene knocked down":"KITLG (KIT ligand)","TNF reporter robust z-score":0.66,"call":"inactive"}
{"gene knocked down":"KITLG (KIT ligand)","TNF reporter robust z-score":-0.59,"call":"inactive"}
{"gene knocked down":"KITLG (KIT ligand)","TNF reporter robust z-score":-0.41,"call":"inactive"}
{"gene knocked down":"KITLG (KIT ligand)","TNF reporter robust z-score":0.52,"call":"inactive"}
{"gene knocked down":"HAO1 (hydroxyacid oxidase 1)","TNF reporter robust z-score":-0.65,"call":"inactive"}
{"gene knocked down":"HAO1 (hydroxyacid oxidase 1)","TNF reporter robust z-score":0.61,"call":"inactive"}
{"gene knocked down":"HAO1 (hydroxyacid oxidase 1)","TNF reporter robust z-score":0.27,"call":"inactive"}
{"gene knocked down":"HAO1 (hydroxyacid oxidase 1)","TNF reporter robust z-score":0.26,"call":"inactive"}
{"gene knocked down":"BIRC6 (baculoviral IAP repeat containing 6)","TNF reporter robust z-score":-0.08,"call":"inactive"}
{"gene knocked down":"BIRC6 (baculoviral IAP repeat containing 6)","TNF reporter robust z-score":0.14,"call":"inactive"}
{"gene knocked down":"BIRC6 (baculoviral IAP repeat containing 6)","TNF reporter robust z-score":0.92,"call":"inactive"}
{"gene knocked down":"BIRC6 (baculoviral IAP repeat containing 6)","TNF reporter robust z-score":0.05,"call":"inactive"}
{"gene knocked down":"DTL (denticleless E3 ubiquitin protein ligase adapter)","TNF reporter robust z-score":0.51,"call":"inactive"}
{"gene knocked down":"DTL (denticleless E3 ubiquitin protein ligase adapter)","TNF reporter robust z-score":-0.15,"call":"inactive"}
{"gene knocked down":"DTL (denticleless E3 ubiquitin protein ligase adapter)","TNF reporter robust z-score":0.12,"call":"inactive"}
{"gene knocked down":"DTL (denticleless E3 ubiquitin protein ligase adapter)","TNF reporter robust z-score":0.29,"call":"inactive"}
{"gene knocked down":"SF3B1 (splicing factor 3b subunit 1)","TNF reporter robust z-score":-1.57,"call":"active"}
{"gene knocked down":"SF3B1 (splicing factor 3b subunit 1)","TNF reporter robust z-score":-1.38,"call":"inactive"}
{"gene knocked down":"SF3B1 (splicing factor 3b subunit 1)","TNF reporter robust z-score":-1.81,"call":"active"}
{"gene knocked down":"SF3B1 (splicing factor 3b subunit 1)","TNF reporter robust z-score":-1.45,"call":"inactive"}
{"gene knocked down":"KCNK9 (potassium two pore domain channel subfamily K member 9)","TNF reporter robust z-score":0.34,"call":"inactive"}
{"gene knocked down":"KCNK9 (potassium two pore domain channel subfamily K member 9)","TNF reporter robust z-score":0.71,"call":"inactive"}
{"gene knocked down":"KCNK9 (potassium two pore domain channel subfamily K member 9)","TNF reporter robust z-score":-0.09,"call":"inactive"}
{"gene knocked down":"KCNK9 (potassium two pore domain channel subfamily K member 9)","TNF reporter robust z-score":-0.88,"call":"inactive"}
{"gene knocked down":"MAP3K19 (mitogen-activated protein kinase kinase kinase 19)","TNF reporter robust z-score":0.38,"call":"inactive"}
{"gene knocked down":"MAP3K19 (mitogen-activated protein kinase kinase kinase 19)","TNF reporter robust z-score":0.31,"call":"inactive"}
{"gene knocked down":"MAP3K19 (mitogen-activated protein kinase kinase kinase 19)","TNF reporter robust z-score":2.01,"call":"inactive"}
{"gene knocked down":"MAP3K19 (mitogen-activated protein kinase kinase kinase 19)","TNF reporter robust z-score":-0.2,"call":"inactive"}
{"gene knocked down":"BOD1L1 (biorientation of chromosomes in cell division 1 like 1)","TNF reporter robust z-score":0.62,"call":"inactive"}
{"gene knocked down":"BOD1L1 (biorientation of chromosomes in cell division 1 like 1)","TNF reporter robust z-score":1.87,"call":"inactive"}
{"gene knocked down":"BOD1L1 (biorientation of chromosomes in cell division 1 like 1)","TNF reporter robust z-score":0.38,"call":"inactive"}
{"gene knocked down":"BOD1L1 (biorientation of chromosomes in cell division 1 like 1)","TNF reporter robust z-score":0.93,"call":"inactive"}

9 of these entries, set out differently.
| gene knocked down | TNF reporter robust z-score | call |
| --- | --- | --- |
| KITLG (KIT ligand) | -0.41 | inactive |
| KITLG (KIT ligand) | 0.52 | inactive |
| HAO1 (hydroxyacid oxidase 1) | -0.65 | inactive |
| HAO1 (hydroxyacid oxidase 1) | 0.61 | inactive |
| HAO1 (hydroxyacid oxidase 1) | 0.27 | inactive |
| HAO1 (hydroxyacid oxidase 1) | 0.26 | inactive |
| BIRC6 (baculoviral IAP repeat containing 6) | -0.08 | inactive |
| BIRC6 (baculoviral IAP repeat containing 6) | 0.14 | inactive |
| BIRC6 (baculoviral IAP repeat containing 6) | 0.92 | inactive |
